# Patent USRE36397E, “Inhibitors of poly(ADP-ribose) synthetase and use thereof to treat NMDA neurotoxicity” (The John Hopkins University, priority 1998, dated 1999)
# For at least one compound, name, drawing or mass did not settle the structure.
# System: primary neuronal cultures from cortex
# Experiment: NMDA neurotoxicity in cerebral cortical cultures (trypan blue, % cell death)
# Assay type: cell-based, Sprague-Dawley rats
# Details: increasing concentrations of NMDA
# Procedure: To determine directly if PARS activation participates in NMDA neurotoxicity, we monitored neurotoxicity elicited by NMDA in cerebral cortical cultures in which NO synthase inhibitors provide marked protection (V. L. Dawson et al., Proc. Natl. Acad. Sci. U.S.A. 88, 6368 (1991); V. L. Dawson et al., J. Neurosci. 13, 2651 (1993)) (FIG. 2).
# Table 1A, PARS inhibitors were applied 30 min before and during NMDA application. In Table 1B, PARS inhibitors were applied after NMDA administration at the indicated times for 20 to 24 hr. Data are the means ±SEM (n≥8). Each data point represents 4,000-12,000 neurons counted. *p≤0.001 Student's t-test.
# Primary neuronal cultures from cortex were prepared from fetal Sprague-Dawley rats, gestation day 13-14. Mature neurons (grater than 21 days in culture) were used in all experiments.
# Neurotoxicity was determined by exposing the neurons to the various test solutions as previously described (Dawson, supra). […], SNP or SNAP were applied to the cells for 5 min, then the cells were washed and replaced with MEM, 21 mM glucose overnight in the incubator. Twenty to 24 hr after exposure to test solutions, the neurons were exposed to 0.4% trypan blue in CSS to stain the residue of non-viable cells and to assess toxicity. Viable and non-viable cells were counted. […]
compound,measurement,value
"CN[C@H](CC(=O)O)C(=O)O [NMDA, N-methyl- D-aspartate]",neuronal killing by NMDA,progressively augment neuronal killing
